# Source: patent publication US9668967B2, “Lipid formulations comprising a thiolated antioxidant” (CAMURUS AB, priority 2008, dated 2017)
# For some assays here: The name of at least one read-out is uncertain. For some assays here: At least one compound was matched to its structure with a doubt left.
# How the values were obtained:
# [1] = Accelerated stability study of BUP lipid formulations at 70° C. for 1 month (HPLC); format: physicochemical; settings: MTG 0-1.0 wt %; 1 month at 70° C., nitrogen headspace
# [2] = Exploratory stability study of glucagon lipid formulations, 25° C./60% RH for 7 days (NP HPLC); format: physicochemical; settings: storage at 25° C./60% RH for 7 days; antioxidant 0.3 wt % (BHT 0.1 wt %); compared with antioxidant-free control
# Procedure: To prevent breakdown of glucagon resulting from oxidation of the methionine residue (giving Met(O)27glucagon), an antioxidant may be included in the compositions of the present invention. To establish the most suitable antioxidant, various common and less common antioxidants were tested in the peptide/lipid system of the present invention.
# Note that the antioxidant content in the respective formulations, except for the reference formulations (#229 and #234), was 0.3 wt % for tocopherol (α-TOC), acsorbyl palmitate (AscPalm) and mono-thioglycerol (MTG) and 0.1 wt % for butyl hydroxytoluene (BHT). Samples containing MTG were #233 and 235.
# In FIG. 3, the assayed GLU content after storage at 25° C./60% RH for 7 days is plotted as the % of initial (time zero) GLU content.
# Because the assay is based on a normal phase (NP) HPLC column, degradation products with RR<1 are more hydrophobic compared with GLU whereas more hydrophilic degradation products give RR>1.
SMILES,recovery of BUP (HPLC) from stored samples (FIG. 2) [1],assayed GLU content as % of initial (time zero) GLU content (FIG. 3) [2]
"OCC(O)CS (centres unmarked) [MTG, Mono-thioglycerol]",increased the recovery of BUP,
"Cc1cc(C(C)(C)C)c(O)c(C(C)(C)C)c1 [BHT, Butyl hydroxytoluene, reference compound]",,better than the control
